From the supplement of paper PMC8728848
Some of the results follow.

Key:
Assay in all cases: glycan array binding signal (z-score within array); higher = stronger binding
Settings in all cases: glycan notation: IUPAC condensed, linker removed
[1] = target: Fuc(a1-3)[Gal(b1-4)]GlcNAc(b1-2)Man(a1-3)[Fuc(a1-3)[Gal(b1-4)]GlcNAc(b1-2)Man(a1-6)]Man(b1-4)GlcNAc(b1-4)[Fuc(a1-6)]GlcNAc
How it was run: (§1)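 Glycan array binding is given as a within-array Z-score, which can be read as non-binding when negative. The arrays, 3228 of them, came from the Consortium for Functional Glycomics database and were retained only where the protein sequence was available. Z-scores were averaged across arrays of the same protein sequence at different concentrations or buffers and across linkers.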

[2] = target: Fuc(a1-3)[Gal(b1-4)]GlcNAc(b1-3)Gal(b1-3)[Fuc(a1-4)]GlcNAc
How it was run: as §1

[3] = target: Fuc(a1-3)[Gal(b1-4)]GlcNAc(b1-3)GalNAc
How it was run: as §1

[4] = target: Fuc(a1-3)[Gal(b1-4)]GlcNAc(b1-4)Gal(b1-4)[Fuc(a1-3)]GlcNAc
How it was run: as §1

[5] = target: Fuc(a1-3)[Gal(b1-4)]GlcNAc(b1-4)Gal(b1-4)[Fuc(a1-3)]GlcNAc(b1-4)Gal(b1-4)[Fuc(a1-3)]GlcNAc
How it was run: as §1

[6] = target: Fuc(a1-3)[Gal(b1-4)]GlcNAc(b1-6)GalNAc
How it was run: as §1

[7] = target: Fuc(a1-3)[Gal(b1-4)]GlcNAc(b1-6)[Gal(b1-3)GlcNAc(b1-3)]Gal(b1-4)Glc
How it was run: as §1

[8] = target: Fuc(a1-3)[Gal(b1-4)]GlcNAc(b1-6)[Neu5Ac(a2-3)Gal(b1-3)]GalNAc
How it was run: as §1

[9] = target: Fuc(a1-3)[Gal(b1-4)]GlcNAc6S
How it was run: as §1

[10] = target: Fuc(a1-3)[Gal3S(b1-4)]GlcNAc
How it was run: as §1

[11] = target: Fuc(a1-3)[Gal3S(b1-4)]GlcNAc6S
How it was run: as §1

[12] = target: Fuc(a1-3)[GalNAc(b1-4)]GlcNAc
How it was run: as §1

[13] = target: Fuc(a1-4)GlcNAc
How it was run: as §1

[14] = target: Fuc(b1-3)GlcNAc
How it was run: as §1

[15] = target: Gal(a1-2)Gal
How it was run: as §1

[16] = target: Gal(a1-3)Gal
How it was run: as §1

[17] = target: Gal(a1-3)Gal(b1-3)GlcNAc
How it was run: as §1

[18] = target: Gal(a1-3)Gal(b1-3)GlcNAc(b1-2)Man(a1-3)[Gal(a1-3)Gal(b1-3)GlcNAc(b1-2)Man(a1-6)]Man(b1-4)GlcNAc(b1-4)GlcNAc
How it was run: as §1

[19] = target: Gal(a1-3)Gal(b1-3)GlcNAc(b1-3)GalNAc
How it was run: as §1

[20] = target: Gal(a1-3)Gal(b1-3)[Fuc(a1-4)]GlcNAc(b1-2)Man(a1-3)[Gal(a1-3)Gal(b1-3)[Fuc(a1-4)]GlcNAc(b1-2)Man(a1-6)]Man(b1-4)GlcNAc(b1-4)GlcNAc
How it was run: as §1

[21] = target: Gal(a1-3)Gal(b1-4)Glc
How it was run: as §1

[22] = target: Gal(a1-3)Gal(b1-4)GlcNAc
How it was run: as §1

[23] = target: Gal(a1-3)Gal(b1-4)GlcNAc(b1-3)GalNAc
How it was run: as §1

[24] = target: Gal(a1-3)Gal(b1-4)[Fuc(a1-3)]GlcNAc
How it was run: as §1

[25] = target: Gal(a1-3)Gal(b1-4)[Fuc(a1-3)]GlcNAc(b1-2)Man(a1-3)[Gal(a1-3)Gal(b1-4)[Fuc(a1-3)]GlcNAc(b1-2)Man(a1-6)]Man(b1-4)GlcNAc(b1-4)GlcNAc
How it was run: as §1

[26] = target: Gal(a1-3)GalNAc
How it was run: as §1

[27] = target: Gal(a1-3)[Gal(a1-4)]Gal(b1-4)GlcNAc
How it was run: as §1

[28] = target: Gal(a1-4)Gal(b1-3)GlcNAc(b1-2)Man(a1-3)[Gal(a1-4)Gal(b1-3)GlcNAc(b1-2)Man(a1-6)]Man(b1-4)GlcNAc(b1-4)GlcNAc
How it was run: as §1

[29] = target: Gal(a1-4)Gal(b1-4)Glc
How it was run: as §1

[30] = target: Gal(a1-4)Gal(b1-4)GlcNAc
How it was run: as §1

[31] = target: Gal(a1-4)Gal(b1-4)GlcNAc(b1-2)Man(a1-3)[Gal(a1-4)Gal(b1-4)GlcNAc(b1-2)Man(a1-6)]Man(b1-4)GlcNAc(b1-4)GlcNAc
How it was run: as §1

[32] = target: Gal(a1-4)Gal(b1-4)GlcNAc(b1-3)Gal(b1-4)Glc
How it was run: as §1

[33] = target: Gal(a1-4)GlcNAc
How it was run: as §1

[34] = target: Gal(a1-6)Glc
How it was run: as §1

[35] = target: Gal(b1-2)Gal
How it was run: as §1

[36] = target: Gal(b1-3)Gal
How it was run: as §1

[37] = target: Gal(b1-3)Gal(b1-4)GlcNAc
How it was run: as §1

[38] = target: Gal(b1-3)Gal(b1-4)GlcNAc(b1-2)Man(a1-3)[Gal(b1-3)Gal(b1-4)GlcNAc(b1-2)Man(a1-6)]Man(b1-4)GlcNAc(b1-4)GlcNAc
How it was run: as §1

[39] = target: Gal(b1-3)GalNAc
How it was run: as §1

[40] = target: Gal(b1-3)GalNAc(a1-3)[Fuc(a1-2)]Gal(b1-4)Glc
How it was run: as §1

[41] = target: Gal(b1-3)GalNAc(a1-3)[Fuc(a1-2)]Gal(b1-4)GlcNAc
How it was run: as §1

[42] = target: Gal(b1-3)GalNAc(b1-3)Gal(a1-4)Gal(b1-4)Glc
How it was run: as §1

[43] = target: Gal(b1-3)GalNAc(b1-4)Gal(b1-4)Glc
How it was run: as §1

[44] = target: Gal(b1-3)GalNAc(b1-4)[Neu5Ac(a2-3)]Gal(b1-4)Glc
How it was run: as §1

[45] = target: Gal(b1-3)GlcNAc
How it was run: as §1

B1: Layilin (Mus musculus), Q8C351 (protein)
chain: MQPGAALQAMLLAVLLAKPRDSKGRLLSASDLDPRGGQLVCRGGTRRPCYKVIYFHDAFQRLNFEEAKETCMEDGGQLVSIETEDEQRLIEKFIENLLASDGDFWIGLKRLEEKQSNNTACQDLYAWTDGSTSQFRNWYVDEPSCGSEVCVVMYHQPSAPPGIGGSYMFQWNDDRCNMKNNFICKYHDDKPSTTPSIWPGGEATEPATPLLPEETQKEDTKETFKERREAALNLAYILIPSIPLFLLLVVTSAVCWVWICRRKREQTDPSTKEQHTIWPTPRQENSPNLDVYNVIRKQSEADLAEPRPDLKNISFRVCSGEAMPDDMSCDYENIAVNPSESGFVTLASMESGFVTNDIYEFSPDRMGRSKESGWVENEIYY
- glycan array binding signal (z-score) [1]: 1.43
- glycan array binding signal (z-score) [2]: -0.959
- glycan array binding signal (z-score) [3]: 2.71
- glycan array binding signal (z-score) [4]: 2.48
- glycan array binding signal (z-score) [5]: -0.267
- glycan array binding signal (z-score) [6]: 1.8
- glycan array binding signal (z-score) [7]: -1.03
- glycan array binding signal (z-score) [8]: 0.249
- glycan array binding signal (z-score) [9]: -0.936
- glycan array binding signal (z-score) [10]: 0.329
- glycan array binding signal (z-score) [11]: 0.08
- glycan array binding signal (z-score) [12]: -0.453
- glycan array binding signal (z-score) [13]: 0.111
- glycan array binding signal (z-score) [14]: 0.342
- glycan array binding signal (z-score) [15]: 0.185
- glycan array binding signal (z-score) [16]: -0.772
- glycan array binding signal (z-score) [17]: -0.17
- glycan array binding signal (z-score) [18]: 1.5
- glycan array binding signal (z-score) [19]: 0.017
- glycan array binding signal (z-score) [20]: -0.26
- glycan array binding signal (z-score) [21]: -0.614
- glycan array binding signal (z-score) [22]: -0.698
- glycan array binding signal (z-score) [23]: -0.956
- glycan array binding signal (z-score) [24]: 0.504
- glycan array binding signal (z-score) [25]: -0.345
- glycan array binding signal (z-score) [26]: 0.901
- glycan array binding signal (z-score) [27]: -0.142
- glycan array binding signal (z-score) [28]: -0.437
- glycan array binding signal (z-score) [29]: -0.76
- glycan array binding signal (z-score) [30]: -0.138
- glycan array binding signal (z-score) [31]: -0.645
- glycan array binding signal (z-score) [32]: 3.88
- glycan array binding signal (z-score) [33]: 0.409
- glycan array binding signal (z-score) [34]: -0.455
- glycan array binding signal (z-score) [35]: -0.724
- glycan array binding signal (z-score) [36]: -1.05
- glycan array binding signal (z-score) [37]: -0.572
- glycan array binding signal (z-score) [38]: 0.348
- glycan array binding signal (z-score) [39]: -0.15
- glycan array binding signal (z-score) [40]: -0.796
- glycan array binding signal (z-score) [41]: 0.846
- glycan array binding signal (z-score) [42]: -0.972
- glycan array binding signal (z-score) [43]: -0.562
- glycan array binding signal (z-score) [44]: -0.593
- glycan array binding signal (z-score) [45]: -0.083
